In PMC6886403, “Structure-Based and Molecular Modeling Studies for the Discovery of Cyclic Imides as Reversible Cruzain Inhibitors With Potent Anti-Trypanosoma cruzi Activity” (Frontiers in Chemistry, 2019):

Key:
HFF-1 human fibroblasts = assay: Cytotoxicity in HFF-1 cells (MTS tetrazolium assay); type: cell-based; details: selectivity index, CC50 HFF-1/IC50 T. cruzi
Description: (§1) The cytotoxicities of the compounds against HFF-1 fibroblasts and HepG2 hepatocytes were evaluated using the MTS tetrazolium assay (Promega, Madison, WI) (Barltrop et al., [1991]). HFF-1 fibroblasts were seeded at 2 × 10^3/well in 96-well culture plates in RPMI 1640 without phenol red supplemented with 10% FCS and incubated overnight (37°C, 5% CO2). HepG2 hepatocytes were seeded at 6 × 10^3/well in 96-well culture plates in DMEM (Cultilab, Campinas SP) supplemented with 10% FCS and incubated overnight (37°C, 5% CO2). The compounds were added in 3-fold serial dilutions, and the plates were incubated at 37°C with 5% CO2. Each compound concentration was evaluated in triplicate. All plates included doxorubicin (Sigma-Aldrich, St. Louis, MO) as a positive control and untreated wells (100% growth) as a negative control. After 72 h, 20 μL of MTS was added, and the plates were incubated for 4 h. The absorbance was measured at 490 nm in an automated microplate reader, and the data were transferred to SigmaPlot 10.0 (Systat Software Inc., Erkrath, Germany) for IC50 value calculation. The percent of nonviable cells was determined and compared to the negative control wells (100% growth).

HepG2 human hepatocytes = assay: Cytotoxicity in HepG2 cells (MTS tetrazolium assay); type: cell-based; details: selectivity index, CC50 HepG2/IC50 T. cruzi
Description: as §1

| SMILES | SI HFF-1/T. cruzi (HFF-1 human fibroblasts) | SI HepG2/T. cruzi (HepG2 human hepatocytes) |
| --- | --- | --- |
| CC(C)C[C@@H](C(=O)OCC(=O)Nc1ccc2ccccc2c1)N1C(=O)C2CC=CCC2C1=O (stereo partly drawn) [3i, 2-(naphthalen-2-ylamino)-2-oxoethyl (2S)-2-(1,3-dioxo-1,3,3a,4,7,7a-hexahydro-2H-isoindol-2-yl)-4-methylpentanoate] | >3 | 1.4 |
| COc1ccc(NC(=O)COC(=O)[C@H](CC(C)C)N2C(=O)C=CC2=O)cc1Cl [10c, 2-((3-chloro-4-methoxyphenyl)amino)-2-oxoethyl (S)-2-(2,5-dioxo-2,5-dihydro-1H-pyrrol-1-yl)-4-methylpentanoate] | > 10 and 13.3 | 36.6 |
| COc1ccc(NC(=O)COC(=O)[C@H](CC(C)C)N2C(=O)CCC2=O)cc1Cl [10d, 2-((3-chloro-4-methoxyphenyl)amino)-2-oxoethyl (S)-2-(2,5-dioxopyrrolidin-1-yl)-4-methylpentanoate] | >5 | >3 |
| COc1ccc(NC(=O)COC(=O)[C@H](CC(C)C)N2C(=O)C=C(C)C2=O)cc1Cl [10e, 2-((3-chloro-4-methoxyphenyl)amino)-2-oxoethyl (S)-4-methyl-2-(3-methyl-2,5-dioxo-2,5-dihydro-1H-pyrrol-1-yl)pentanoate] | 4 | 4.2 |
| COc1ccc(NC(=O)COC(=O)[C@H](CC(C)C)N2C(=O)C(Cl)=C(Cl)C2=O)cc1Cl [10f, 2-((3-chloro-4-methoxyphenyl)amino)-2-oxoethyl (S)-2-(3,4-dichloro-2,5-dioxo-2,5-dihydro-1H-pyrrol-1-yl)-4-methylpentanoate] | > 10 and 16.5 | > 32 |
| COc1ccc(NC(=O)COC(=O)[C@H](Cc2ccccc2)N2C(=O)C=CC2=O)cc1Cl [10j, 2-((3-chloro-4-methoxyphenyl)amino)-2-oxoethyl (S)-2-(2,5-dioxo-2,5-dihydro-1H-pyrrol-1-yl)-3-phenylpropanoate] | > 10 and 15.7 | 67 |
| COc1ccc(NC(=O)COC(=O)[C@H](CC(C)C)N2CCCCC2)cc1Cl [10l, 2-((3-chloro-4-methoxyphenyl)amino)-2-oxoethyl (S)-4-methyl-2-(piperidin-1-yl)pentanoate] | >8 | >5 |
| COc1ccc(NC(=O)COC(=O)[C@H](CC(C)C)N2CCOCC2)cc1Cl [10m, 2-((3-chloro-4-methoxyphenyl)amino)-2-oxoethyl (S)-4-methyl-2-morpholinopentanoate] | – | > 35 |
| COc1ccc(NC(=O)COC(=O)[C@H](CC(C)C)N2CCN(C(=O)OC(C)(C)C)CC2)cc1Cl [10n, tert-butyl (S)-4-(1-(2-((3-chloro-4-methoxyphenyl)amino)-2-oxoethoxy)-4-methyl-1-oxopentan-2-yl)piperazine-1-carboxylate] | > 10 and 20 | 16.9 |
| COc1ccc(NC(=O)COC(=O)[C@H](CC(C)C)N2CCNCC2)cc1Cl.Cl [10o, 2-((3-chloro-4-methoxyphenyl)amino)-2-oxoethyl (S)-4-methyl-2-(piperazin-1-yl)pentanoate hydrochloride] | > 10 and 18.8 | 30.6 |
| O=C(Cn1ccnc1[N+](=O)[O-])NCc1ccccc1 [BZ, benznidazole, reference compound] | > 33 | >21 |
| COc1ccc(NCCOC(=O)C(CC(C)C)N2C(=O)C3CC=CCC3C2=O)cc1Cl (stereo not shown) [compound 7, 2-((3-chloro-4-methoxyphenyl)amino)ethyl 2-(1,3-dioxo-1,3,3a,4,7,7a-hexahydro-2H-isoindol-2-yl)-4-methylpentanoate] | – | 42 |

Several values for one entry are separate records, joined by “and”; a condition that tells them apart may be missing. Equal values may be shown once.
